Values from PubChem BioAssay AID1259297 (Sanger Institute, 2017)

Aim: 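Kinases whose loss kills cells on their own or with targeted drugs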 (primary screen)
Cell system: human RCM1 colorectal cancer cell line
Knock-down reagent: siRNA pool against human genes
Treatment: separate arms: DMSO vehicle, or one anchor drug at a mild dose: BYL719 1 µM, cetuximab 5 µg/ml, trametinib 10 nM
Measured: 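Replicate-mean well viability as a share of non-targeting pool control, a robust z-score without drug, and synergy scores for BYL719, cetuximab and trametinib arms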
Direction: viability z-score, knock-down alone: higher = more viable cells than non-targeting controls
Active means: 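Called essential if knock-down without drug gives a viability robust z-score under -3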
Meaning of the calls: active = essential when knocked down alone; inactive = no clear loss of viability alone
Here is an unselected part of 794 deposited reagents. 13 of them (1.6%) were called active. 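Calls reflect knock-down without drug only; drug synergy is judged separately, with scores above 0.15 counted as synergy.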 A number with no mark means an inactive call. Not all columns of the deposit are shown. Not stated in the record: the amount of reagent, the time to read-out.

{"Gene": "GNE", "viability z-score, knock-down alone": 0.071}
{"Gene": "PDIK1L (PDLIM1 interacting kinase 1 like)", "viability z-score, knock-down alone": 0.441}
{"Gene": "NF1 (neurofibromin 1)", "viability z-score, knock-down alone": -1.15}
{"Gene": "PRKG1 (protein kinase cGMP-dependent 1)", "viability z-score, knock-down alone": 0.9}
{"Gene": "CIT (citron rho-interacting serine/threonine kinase)", "viability z-score, knock-down alone": -1.89}
{"Gene": "DGKB (diacylglycerol kinase beta)", "viability z-score, knock-down alone": -1.14}
{"Gene": "MARK2 (microtubule affinity regulating kinase 2)", "viability z-score, knock-down alone": 0.9}
{"Gene": "EPHB2 (EPH receptor B2)", "viability z-score, knock-down alone": -0.617}
{"Gene": "MAPK14 (mitogen-activated protein kinase 14)", "viability z-score, knock-down alone": 0.791}
{"Gene": "IDH2 (isocitrate dehydrogenase (NADP(+)) 2)", "viability z-score, knock-down alone": 0.9}
{"Gene": "ACVR1C (activin A receptor type 1C)", "viability z-score, knock-down alone": 0.9}
{"Gene": "PHKG1 (phosphorylase kinase catalytic subunit gamma 1)", "viability z-score, knock-down alone": -1.18}
{"Gene": "ATRX (ATRX chromatin remodeler)", "viability z-score, knock-down alone": 0.668}
{"Gene": "MAP3K8 (mitogen-activated protein kinase kinase kinase 8)", "viability z-score, knock-down alone": -1.4}

6 entries already listed, sorted by “viability z-score, knock-down alone”, ascending:
{"Gene": "PHKG1 (phosphorylase kinase catalytic subunit gamma 1)", "viability z-score, knock-down alone": -1.18}
{"Gene": "EPHB2 (EPH receptor B2)", "viability z-score, knock-down alone": -0.617}
{"Gene": "MAPK14 (mitogen-activated protein kinase 14)", "viability z-score, knock-down alone": 0.791}
{"Gene": "MARK2 (microtubule affinity regulating kinase 2)", "viability z-score, knock-down alone": 0.9}
{"Gene": "IDH2 (isocitrate dehydrogenase (NADP(+)) 2)", "viability z-score, knock-down alone": 0.9}
{"Gene": "ACVR1C (activin A receptor type 1C)", "viability z-score, knock-down alone": 0.9}

Additional records:
{"Gene": "CDK3 (cyclin dependent kinase 3)", "viability z-score, knock-down alone": 0.9}
{"Gene": "ZAP70 (zeta chain of T cell receptor associated protein kinase 70)", "viability z-score, knock-down alone": -0.0114}
{"Gene": "MARK3 (microtubule affinity regulating kinase 3)", "viability z-score, knock-down alone": -1.57}
{"Gene": "MED12 (mediator complex subunit 12)", "viability z-score, knock-down alone": 0.9}
{"Gene": "DGKH (diacylglycerol kinase eta)", "viability z-score, knock-down alone": 0.0352}
{"Gene": "TBCK (TBC1 domain containing kinase)", "viability z-score, knock-down alone": 0.9}
{"Gene": "PHKB (phosphorylase kinase regulatory subunit beta)", "viability z-score, knock-down alone": 0.9}
{"Gene": "PRKAR2A", "viability z-score, knock-down alone": -0.715}
{"Gene": "PFKL (phosphofructokinase, liver type)", "viability z-score, knock-down alone": 0.9}
{"Gene": "MAP3K9 (mitogen-activated protein kinase kinase kinase 9)", "viability z-score, knock-down alone": -1.5}
{"Gene": "DYRK3 (dual specificity tyrosine phosphorylation regulated kinase 3)", "viability z-score, knock-down alone": -0.465}
{"Gene": "CDK9 (cyclin dependent kinase 9)", "viability z-score, knock-down alone": 0.79}
{"Gene": "EPHB3 (EPH receptor B3)", "viability z-score, knock-down alone": -2.95}
{"Gene": "PRPS1 (phosphoribosyl pyrophosphate synthetase 1)", "viability z-score, knock-down alone": -1.01}
{"Gene": "NRBP2 (nuclear receptor binding protein 2)", "viability z-score, knock-down alone": -0.931}
{"Gene": "ATR (ATR checkpoint kinase)", "viability z-score, knock-down alone": 0.9}
{"Gene": "TNIK (TRAF2 and NCK interacting kinase)", "viability z-score, knock-down alone": -0.295}
{"Gene": "CSNK1A1 (casein kinase 1 alpha 1)", "viability z-score, knock-down alone": 0.704}
{"Gene": "SCYL3 (SCY1 like pseudokinase 3)", "viability z-score, knock-down alone": -0.458}
{"Gene": "ERBB3 (erb-b2 receptor tyrosine kinase 3)", "viability z-score, knock-down alone": -1.23}
{"Gene": "ROS1 (ROS proto-oncogene 1, receptor tyrosine kinase)", "viability z-score, knock-down alone": 0.899}
{"Gene": "HIPK1 (homeodomain interacting protein kinase 1)", "viability z-score, knock-down alone": 0.9}
